Our source for the log2 fold change values is the supplement of paper PMC10849652.

Amino acid sequences for entries named in this document (tags omitted). A change or cut given only in a name is not applied to a line headed by its entry.
UniProt Q5VTE0, whole entry, looked up: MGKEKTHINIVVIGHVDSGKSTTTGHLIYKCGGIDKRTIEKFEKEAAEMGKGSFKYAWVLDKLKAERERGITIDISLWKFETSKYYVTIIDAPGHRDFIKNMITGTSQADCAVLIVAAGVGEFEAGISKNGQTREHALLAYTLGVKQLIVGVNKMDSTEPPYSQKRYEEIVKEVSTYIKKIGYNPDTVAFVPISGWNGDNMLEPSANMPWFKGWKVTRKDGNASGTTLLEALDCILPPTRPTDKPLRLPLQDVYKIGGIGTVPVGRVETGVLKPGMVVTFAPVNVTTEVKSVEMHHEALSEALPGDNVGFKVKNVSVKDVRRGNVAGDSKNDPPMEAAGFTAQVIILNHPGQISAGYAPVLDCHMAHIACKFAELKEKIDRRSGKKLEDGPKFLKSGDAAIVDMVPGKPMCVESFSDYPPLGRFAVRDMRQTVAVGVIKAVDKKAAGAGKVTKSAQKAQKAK
UniProt P55039: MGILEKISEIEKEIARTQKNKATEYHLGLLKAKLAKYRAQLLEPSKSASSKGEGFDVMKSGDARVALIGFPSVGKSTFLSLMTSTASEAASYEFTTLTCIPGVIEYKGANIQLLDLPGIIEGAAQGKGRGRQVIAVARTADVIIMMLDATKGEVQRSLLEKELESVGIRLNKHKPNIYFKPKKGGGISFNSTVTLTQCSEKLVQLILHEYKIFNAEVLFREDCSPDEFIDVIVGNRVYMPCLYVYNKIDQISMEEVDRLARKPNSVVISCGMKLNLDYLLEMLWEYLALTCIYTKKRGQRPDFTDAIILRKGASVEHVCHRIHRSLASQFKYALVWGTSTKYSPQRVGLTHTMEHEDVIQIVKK
UniProt P23919: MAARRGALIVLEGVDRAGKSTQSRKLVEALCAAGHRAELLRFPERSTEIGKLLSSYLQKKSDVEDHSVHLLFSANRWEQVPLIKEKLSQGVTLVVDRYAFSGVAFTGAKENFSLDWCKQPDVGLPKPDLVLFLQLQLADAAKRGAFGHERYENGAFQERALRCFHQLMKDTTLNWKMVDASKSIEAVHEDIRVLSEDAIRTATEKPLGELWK
UniProt Q5JPH6: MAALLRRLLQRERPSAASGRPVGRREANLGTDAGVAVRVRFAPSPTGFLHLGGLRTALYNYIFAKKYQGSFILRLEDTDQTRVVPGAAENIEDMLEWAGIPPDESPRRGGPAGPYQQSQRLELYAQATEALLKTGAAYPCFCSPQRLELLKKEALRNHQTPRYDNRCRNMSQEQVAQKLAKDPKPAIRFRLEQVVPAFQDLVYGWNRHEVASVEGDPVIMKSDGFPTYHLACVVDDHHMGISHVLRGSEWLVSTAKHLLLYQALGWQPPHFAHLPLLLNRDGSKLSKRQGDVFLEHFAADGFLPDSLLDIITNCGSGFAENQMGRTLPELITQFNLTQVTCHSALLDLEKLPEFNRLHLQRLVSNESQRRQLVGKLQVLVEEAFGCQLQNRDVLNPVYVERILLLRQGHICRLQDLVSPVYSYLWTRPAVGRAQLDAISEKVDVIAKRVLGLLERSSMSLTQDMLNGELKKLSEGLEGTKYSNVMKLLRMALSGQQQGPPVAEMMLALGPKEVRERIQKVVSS
UniProt P41567, whole entry, looked up: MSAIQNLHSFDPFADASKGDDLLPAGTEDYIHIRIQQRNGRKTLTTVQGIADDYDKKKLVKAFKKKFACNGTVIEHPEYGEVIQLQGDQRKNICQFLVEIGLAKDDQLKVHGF
UniProt P47813, whole entry, looked up: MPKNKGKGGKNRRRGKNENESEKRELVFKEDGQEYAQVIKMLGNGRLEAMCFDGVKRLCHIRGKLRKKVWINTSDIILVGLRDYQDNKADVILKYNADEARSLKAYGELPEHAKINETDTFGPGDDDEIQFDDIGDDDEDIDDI
UniProt Q13011: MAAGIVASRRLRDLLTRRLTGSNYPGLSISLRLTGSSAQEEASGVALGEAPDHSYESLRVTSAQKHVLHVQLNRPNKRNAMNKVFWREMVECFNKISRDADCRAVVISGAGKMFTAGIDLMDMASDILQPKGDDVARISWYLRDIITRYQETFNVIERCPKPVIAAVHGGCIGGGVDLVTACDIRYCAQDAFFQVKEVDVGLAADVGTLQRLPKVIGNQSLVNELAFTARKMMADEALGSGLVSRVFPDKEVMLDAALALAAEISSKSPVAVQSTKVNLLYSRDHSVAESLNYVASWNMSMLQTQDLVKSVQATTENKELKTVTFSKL
UniProt P24534: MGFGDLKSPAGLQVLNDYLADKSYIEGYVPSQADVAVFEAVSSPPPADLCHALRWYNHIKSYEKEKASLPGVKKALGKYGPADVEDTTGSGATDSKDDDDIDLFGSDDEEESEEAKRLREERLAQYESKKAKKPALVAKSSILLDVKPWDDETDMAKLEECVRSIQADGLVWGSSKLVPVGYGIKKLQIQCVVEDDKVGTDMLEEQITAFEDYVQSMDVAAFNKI
UniProt Q99956: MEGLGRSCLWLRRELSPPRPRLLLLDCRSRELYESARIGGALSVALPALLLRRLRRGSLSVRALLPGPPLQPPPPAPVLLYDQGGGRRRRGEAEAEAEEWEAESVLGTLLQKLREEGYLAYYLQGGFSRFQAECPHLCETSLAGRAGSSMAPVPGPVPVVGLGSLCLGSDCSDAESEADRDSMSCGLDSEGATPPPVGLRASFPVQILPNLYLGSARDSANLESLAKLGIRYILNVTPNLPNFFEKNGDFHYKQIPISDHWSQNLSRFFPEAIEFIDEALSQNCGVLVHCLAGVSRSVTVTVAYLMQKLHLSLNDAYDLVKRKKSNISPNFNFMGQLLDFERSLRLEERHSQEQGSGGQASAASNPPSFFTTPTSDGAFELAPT
UniProt Q01658: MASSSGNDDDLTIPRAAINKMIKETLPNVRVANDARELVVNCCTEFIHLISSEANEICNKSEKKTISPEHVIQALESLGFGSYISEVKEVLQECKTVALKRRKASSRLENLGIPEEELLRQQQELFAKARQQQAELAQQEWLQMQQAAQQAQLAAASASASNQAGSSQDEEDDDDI
UniProt P63172, whole entry, looked up: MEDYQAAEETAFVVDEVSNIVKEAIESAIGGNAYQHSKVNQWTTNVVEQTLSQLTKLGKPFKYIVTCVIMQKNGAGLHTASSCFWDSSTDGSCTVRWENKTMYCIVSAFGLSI
UniProt Q9BVJ7: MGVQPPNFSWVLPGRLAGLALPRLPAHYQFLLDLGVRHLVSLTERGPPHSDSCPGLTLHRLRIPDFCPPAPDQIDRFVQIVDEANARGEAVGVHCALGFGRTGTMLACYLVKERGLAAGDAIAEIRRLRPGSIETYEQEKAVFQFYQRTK
UniProt Q7Z2Z2: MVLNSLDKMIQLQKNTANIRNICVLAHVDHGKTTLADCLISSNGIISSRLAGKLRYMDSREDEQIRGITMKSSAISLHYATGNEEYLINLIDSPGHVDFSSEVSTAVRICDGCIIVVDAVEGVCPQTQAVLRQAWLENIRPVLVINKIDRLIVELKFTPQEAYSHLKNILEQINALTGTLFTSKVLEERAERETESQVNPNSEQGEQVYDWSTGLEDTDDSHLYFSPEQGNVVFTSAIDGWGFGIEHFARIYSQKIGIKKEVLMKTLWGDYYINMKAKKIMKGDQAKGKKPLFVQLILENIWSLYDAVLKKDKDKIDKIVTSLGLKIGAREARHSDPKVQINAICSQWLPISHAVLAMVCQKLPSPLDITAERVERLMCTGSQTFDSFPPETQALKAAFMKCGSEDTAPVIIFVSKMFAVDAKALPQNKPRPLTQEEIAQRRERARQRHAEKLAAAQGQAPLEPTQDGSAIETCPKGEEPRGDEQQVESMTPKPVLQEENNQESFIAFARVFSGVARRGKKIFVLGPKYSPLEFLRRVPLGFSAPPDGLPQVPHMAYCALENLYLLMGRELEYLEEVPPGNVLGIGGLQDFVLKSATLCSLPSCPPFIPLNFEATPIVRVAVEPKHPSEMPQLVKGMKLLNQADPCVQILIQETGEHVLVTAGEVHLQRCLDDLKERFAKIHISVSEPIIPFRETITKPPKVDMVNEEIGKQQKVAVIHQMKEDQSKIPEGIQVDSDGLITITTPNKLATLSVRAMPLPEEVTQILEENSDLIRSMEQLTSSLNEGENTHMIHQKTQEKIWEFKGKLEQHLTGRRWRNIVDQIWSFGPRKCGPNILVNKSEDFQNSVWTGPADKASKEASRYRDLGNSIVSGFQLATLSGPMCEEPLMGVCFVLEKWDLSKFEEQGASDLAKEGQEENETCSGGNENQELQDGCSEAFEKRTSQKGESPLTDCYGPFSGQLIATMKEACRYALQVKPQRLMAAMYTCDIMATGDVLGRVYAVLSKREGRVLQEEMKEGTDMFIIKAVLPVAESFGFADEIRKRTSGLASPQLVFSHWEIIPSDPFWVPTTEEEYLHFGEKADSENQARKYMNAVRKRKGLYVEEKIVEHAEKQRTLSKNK
UniProt O60869: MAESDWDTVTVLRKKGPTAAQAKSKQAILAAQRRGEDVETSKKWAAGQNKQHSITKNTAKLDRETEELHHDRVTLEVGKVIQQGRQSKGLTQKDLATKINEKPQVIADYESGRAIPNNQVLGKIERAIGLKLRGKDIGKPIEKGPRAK
EEF1AKMT2, A0A494BZY7, UniProt A0A494BZY7, whole entry, looked up: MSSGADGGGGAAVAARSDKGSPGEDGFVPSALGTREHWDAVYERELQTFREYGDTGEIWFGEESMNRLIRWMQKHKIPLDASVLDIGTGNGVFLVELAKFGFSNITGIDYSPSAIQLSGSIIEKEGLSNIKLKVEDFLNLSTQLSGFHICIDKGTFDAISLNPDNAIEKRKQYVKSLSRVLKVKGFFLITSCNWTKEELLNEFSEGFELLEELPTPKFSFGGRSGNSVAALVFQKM
UniProt Q9UNI6, whole entry, looked up: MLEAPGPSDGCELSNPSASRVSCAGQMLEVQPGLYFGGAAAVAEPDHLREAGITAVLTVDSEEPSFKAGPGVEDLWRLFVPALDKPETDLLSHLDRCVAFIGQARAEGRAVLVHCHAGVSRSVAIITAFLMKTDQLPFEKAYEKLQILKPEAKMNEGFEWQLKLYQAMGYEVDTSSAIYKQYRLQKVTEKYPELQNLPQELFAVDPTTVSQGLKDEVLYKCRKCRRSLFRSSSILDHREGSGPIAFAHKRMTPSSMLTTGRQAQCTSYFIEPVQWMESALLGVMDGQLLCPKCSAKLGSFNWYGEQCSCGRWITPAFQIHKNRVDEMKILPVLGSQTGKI
UniProt Q8N9N8: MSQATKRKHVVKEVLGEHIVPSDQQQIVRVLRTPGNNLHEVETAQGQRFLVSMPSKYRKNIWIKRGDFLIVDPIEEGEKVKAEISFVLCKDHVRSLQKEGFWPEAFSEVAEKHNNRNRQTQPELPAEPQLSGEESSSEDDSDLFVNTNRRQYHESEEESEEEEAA
UniProt Q92785, whole entry, looked up: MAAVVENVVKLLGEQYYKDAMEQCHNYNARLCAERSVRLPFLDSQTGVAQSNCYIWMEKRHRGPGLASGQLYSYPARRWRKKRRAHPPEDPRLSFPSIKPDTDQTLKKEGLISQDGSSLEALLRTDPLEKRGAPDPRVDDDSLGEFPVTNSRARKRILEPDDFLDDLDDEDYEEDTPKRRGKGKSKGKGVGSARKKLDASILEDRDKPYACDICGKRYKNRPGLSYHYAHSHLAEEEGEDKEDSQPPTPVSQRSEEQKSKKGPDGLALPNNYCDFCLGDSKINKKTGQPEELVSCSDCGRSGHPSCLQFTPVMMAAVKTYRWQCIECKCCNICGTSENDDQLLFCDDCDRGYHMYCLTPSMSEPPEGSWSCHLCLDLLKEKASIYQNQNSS
UniProt Q9BZQ6: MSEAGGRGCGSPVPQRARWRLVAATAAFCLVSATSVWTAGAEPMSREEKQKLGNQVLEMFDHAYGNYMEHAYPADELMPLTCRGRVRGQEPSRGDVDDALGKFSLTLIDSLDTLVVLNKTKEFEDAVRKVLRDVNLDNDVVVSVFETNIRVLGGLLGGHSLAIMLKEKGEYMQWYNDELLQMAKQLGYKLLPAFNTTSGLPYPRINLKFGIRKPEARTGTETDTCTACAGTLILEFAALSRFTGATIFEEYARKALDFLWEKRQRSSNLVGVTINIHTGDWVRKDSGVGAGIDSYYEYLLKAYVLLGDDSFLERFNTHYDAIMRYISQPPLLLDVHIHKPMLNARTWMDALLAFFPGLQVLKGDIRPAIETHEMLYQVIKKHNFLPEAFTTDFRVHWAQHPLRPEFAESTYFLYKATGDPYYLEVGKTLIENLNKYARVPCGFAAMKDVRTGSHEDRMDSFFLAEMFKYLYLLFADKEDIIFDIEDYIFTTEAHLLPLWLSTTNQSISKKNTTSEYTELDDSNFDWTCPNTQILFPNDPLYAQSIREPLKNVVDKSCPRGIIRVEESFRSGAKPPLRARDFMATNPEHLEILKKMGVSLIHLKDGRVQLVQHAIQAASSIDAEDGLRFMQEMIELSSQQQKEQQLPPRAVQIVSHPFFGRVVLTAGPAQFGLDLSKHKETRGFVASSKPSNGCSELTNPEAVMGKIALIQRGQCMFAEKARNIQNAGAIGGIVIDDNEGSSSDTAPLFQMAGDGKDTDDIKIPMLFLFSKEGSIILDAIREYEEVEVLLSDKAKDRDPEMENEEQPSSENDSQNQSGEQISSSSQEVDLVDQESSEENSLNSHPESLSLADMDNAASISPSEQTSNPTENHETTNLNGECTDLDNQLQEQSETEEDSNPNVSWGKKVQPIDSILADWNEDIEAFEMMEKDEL

The other results are listed elsewhere or left out.

Compound in the assay: COc1cc2ncnc(Nc3ccc(F)c(Cl)c3)c2cc1OCCCN1CCOCC1 [gefitinib]
The assay can be described thus: log2 fold change, soluble protein after heating vs DMSO (PISA); higher = thermal stabilisation; K562 lysate, 10 uM; active = over 0.2 and 3.5 SD of the protein, either way, in both replicates (recomputed). An outline of the steps: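 Thermal stability, expressed as log-two fold change relative to solvent controls, is given from duplicates. Crude K562 extract in PBS pH 7.4 with 1 mM MgCl2, at 1 mg/mL protein, was treated with 10 μM compound for 30 min and heated in aliquots for 3 min across 48°C-58°C. After pooling, adjustment to 0.5% NP-40 at 4°C and centrifugation at 21,000xg for 90 min, supernatant protein was measured by TMTpro 16plex LC-MS/MS with channel sums equalised.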
On to EEF1A1P5 (UniProt Q5VTE0), for which the log2 fold change is inactive: 0. For DRG2 (UniProt P55039), the log2 fold change is inactive: -0.035. Next, DTYMK (UniProt P23919): inactive: -0.011; EARS2 (UniProt Q5JPH6): inactive: 0.052; EIF1 (UniProt P41567): active: -0.247.

EEF2 (UniProt P13639): the log2 fold change was inactive: -0.023.

As for EIF1AX (UniProt P47813), the log2 fold change was inactive: -0.079. For the target ECH1 (UniProt Q13011), the log2 fold change is inactive: -0.001.

In the case of EEF1B2 (UniProt P24534), the log2 fold change was inactive: 0.003.

As for DUSP9 (UniProt Q99956), the log2 fold change was inactive: 0.013. For ECHDC3 (UniProt Q96DC8) the value was inactive: 0.004; for DR1 (UniProt Q01658), inactive: 0.022; for DPP7 (UniProt Q9UHL4), inactive: 0.009. Next, DYNLT1 (UniProt P63172): inactive: -0.071; DPH2 (UniProt Q9BQC3): inactive: -0.051. Next, DUSP23 (UniProt Q9BVJ7): inactive: -0.056. DYNC1H1 (UniProt Q14204): the log2 fold change was inactive: -0.017. Next, EFL1 (UniProt Q7Z2Z2): inactive: 0.002; DPY19L1, A0A1B0GW05: inactive: -0.002; EDF1 (UniProt O60869): inactive: -0.001. Next, EHMT2 (UniProt A2ABF8): inactive: 0.047; E2F3 (UniProt O00716): inactive: 0.011; EEF1AKMT2, A0A494BZY7: inactive: 0.011. Turning to E2F4 (UniProt Q16254), the log2 fold change was inactive: 0.069.

For DUSP12 (UniProt Q9UNI6), the log2 fold change is inactive: 0.031.

Consider DUT (UniProt P33316), for which the log2 fold change is inactive: -0.01.

Regarding DSG2 (UniProt Q14126), the log2 fold change was inactive: 0.027. Next, EIF1AD (UniProt Q8N9N8): inactive: 0.046.

For the target DPF2 (UniProt Q92785), the log2 fold change is inactive: -0.012.

Take EEF1AKNMT (UniProt Q8N6R0): the log2 fold change was inactive: -0.031. For EDEM3 (UniProt Q9BZQ6) the value was inactive: 0.028. In the case of EEF1G isoform 2 (UniProt P26641), the log2 fold change was inactive: -0.008.
